Laboratory results: PubChem BioAssay AID1259254 (NCATS, 2017)

Purpose: 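Finding genes that stop cells copying their DNA twice in one cycle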 (primary screen)
Cell system: human HCT116 colorectal cancer cells
Knock-down reagent: single siRNA against human genes
Duration: 3 days
Detection: 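Nuclei stained with Hoechst and imaged; cell-cycle phase assigned by DNA content; G2 share scaled per plate, non-targeting siRNA 0%, GMNN siRNA 100%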
Direction: G2 robust z-score: higher = more G2 cells, more excess DNA replication
Call rule: 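Active siRNAs have a G2 robust z of 5 or more median absolute deviations over the median, which in these data means about 38% or higher of GMNN control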
The whole screen tested about 59,000 reagents; shown is a random part of them. About 1,550 of them (2.6%) were called active. 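G2 share is only a proxy for re-replication; each gene was hit by three separate siRNAs, and active genes were retested.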 The numbers tell different reagents against one gene apart. Not all columns of the deposit are shown. Reagent sequences are not shown. Not given: the amount of reagent.

ATP13A4 (GeneID 84239) #1 showed G2 robust z-score -0.375; inactive.
Knock-down of ATP13A4 (GeneID 84239) #2 gave: G2 robust z-score -0.534; inactive.
After knock-down of ATP13A4 (GeneID 84239) #3 the results were G2 robust z-score -0.742; inactive.
Depletion of TSEN2 (GeneID 80746) #1 came out at: G2 robust z-score 0.319; inactive.
For TSEN2 (GeneID 80746) #2, the entry reads G2 robust z-score 0.66; inactive.
Silencing of TSEN2 (GeneID 80746) #3 gave: G2 robust z-score -0.453; inactive.
Against DDX28 (GeneID 55794) #1 the deposit lists G2 robust z-score -0.797; inactive.
DDX28 (GeneID 55794) #2 scored G2 robust z-score -0.515; inactive.
DDX28 (GeneID 55794) #3 scored G2 robust z-score -0.417; inactive.
With knock-down of FLT3 (GeneID 2322) #1, the screen gave G2 robust z-score 0.707; inactive.
FLT3 (GeneID 2322) #2 scored G2 robust z-score -1.07; inactive.
Against FLT3 (GeneID 2322) #3, the entry reads G2 robust z-score -0.354; inactive.
After knock-down of TBC1D19 (GeneID 55296) #1, the record shows G2 robust z-score 1.74; inactive.
Against TBC1D19 (GeneID 55296) #2, the values are G2 robust z-score 0.315; inactive.
TBC1D19 (GeneID 55296) #3 showed G2 robust z-score 1.31; inactive.
TBC1D32 (GeneID 221322) #1 gave G2 robust z-score -0.519; inactive.
For TBC1D32 (GeneID 221322) #2, the entry reads G2 robust z-score -1.12; inactive.
Silencing of TBC1D32 (GeneID 221322) #3 resulted in: G2 robust z-score -0.542; inactive.
For PHETA1 (GeneID 144717) #1, the entry reads G2 robust z-score 1.7; inactive.
Against PHETA1 (GeneID 144717) #2, the entry reads G2 robust z-score 3.63; inactive.
Knock-down of PHETA1 (GeneID 144717) #3 resulted in: G2 robust z-score -0.687; inactive.
Silencing of KRTCAP2 (GeneID 200185) #1 resulted in: G2 robust z-score 0.205; inactive.
Depletion of KRTCAP2 (GeneID 200185) #2 gave: G2 robust z-score 0.406; inactive.
KRTCAP2 (GeneID 200185) #3 scored G2 robust z-score 2.02; inactive.
ADARB2-AS1 (GeneID 642394) #1 showed G2 robust z-score 4.21; inactive.
After knock-down of ADARB2-AS1 (GeneID 642394) #2, the screen gave G2 robust z-score 2.86; inactive.
Against ADARB2-AS1 (GeneID 642394) #3, the values are G2 robust z-score -0.311; inactive.
Knock-down of NIPBL-DT (GeneID 646719) #1 resulted in: G2 robust z-score 0.24; inactive.
For NIPBL-DT (GeneID 646719) #2, the values are G2 robust z-score 0.371; inactive.
Depletion of NIPBL-DT (GeneID 646719) #3 gave: G2 robust z-score -0.247; inactive.
